Source: US8618054B2 (Valorisation-Rechereche Société en Commandite, priority 2004, dated 2013)

Assay: general procedure: Fmoc solid-phase peptide synthesis
Conditions: whole synthesis, rp-HPLC, scale of the general procedure 0.1 mmol, dihydrochloride salt

RY(HyVal)PELA
crude HPLC purity: ≧90%
